In PMC11198909:
The exact form of at least one protein or probe is not confirmed.

System: Dorsal-His (Sogatella furcifera)
Assay: EMSA
Conditions: 5 mM Mg2+, poly(dI-dC) 10 ug, 10 mM Tris-HCl pH 7.5, 0.25 mM DTT, 5 mM MgCl2, 10 mM KCl, probe 20 fmol, Dorsal-His 100 ug, 4 C 30 min, 5% native PAGE, recombinant protein, protein details: His (pEASY-Blunt E1), label: Cy5

ACTGGAATTACCCGGGAAATGAGATTTTCCAG (double strand) [defensin-Cy5-probe]
binding result: binds
